For four molecules, binding results are on record in PMC5717001.

By UniProt entry, the sequences of proteins in these tests, tags left out.
UniProt Q9Y4R8: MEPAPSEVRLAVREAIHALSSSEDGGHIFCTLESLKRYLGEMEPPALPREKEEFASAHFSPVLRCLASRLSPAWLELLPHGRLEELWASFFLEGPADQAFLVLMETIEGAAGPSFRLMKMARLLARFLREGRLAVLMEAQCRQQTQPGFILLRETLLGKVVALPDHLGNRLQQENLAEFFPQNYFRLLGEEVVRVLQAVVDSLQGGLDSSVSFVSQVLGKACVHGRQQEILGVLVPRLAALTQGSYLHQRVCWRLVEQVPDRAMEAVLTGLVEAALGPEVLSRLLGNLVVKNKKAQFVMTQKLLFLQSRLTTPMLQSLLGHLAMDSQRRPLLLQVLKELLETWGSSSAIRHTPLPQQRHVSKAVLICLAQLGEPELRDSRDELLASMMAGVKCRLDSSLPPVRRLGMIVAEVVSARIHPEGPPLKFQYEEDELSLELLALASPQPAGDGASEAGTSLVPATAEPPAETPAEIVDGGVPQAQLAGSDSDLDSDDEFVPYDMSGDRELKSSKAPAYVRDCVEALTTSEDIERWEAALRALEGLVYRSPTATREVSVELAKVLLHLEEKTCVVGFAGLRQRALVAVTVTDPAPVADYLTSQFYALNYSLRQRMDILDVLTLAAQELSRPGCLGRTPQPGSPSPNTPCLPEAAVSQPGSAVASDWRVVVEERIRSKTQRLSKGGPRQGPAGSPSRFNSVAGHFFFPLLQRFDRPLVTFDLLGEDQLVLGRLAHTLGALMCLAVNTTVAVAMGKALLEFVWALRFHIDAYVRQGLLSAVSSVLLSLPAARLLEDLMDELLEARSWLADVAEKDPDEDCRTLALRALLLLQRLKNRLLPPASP
UniProt O00311: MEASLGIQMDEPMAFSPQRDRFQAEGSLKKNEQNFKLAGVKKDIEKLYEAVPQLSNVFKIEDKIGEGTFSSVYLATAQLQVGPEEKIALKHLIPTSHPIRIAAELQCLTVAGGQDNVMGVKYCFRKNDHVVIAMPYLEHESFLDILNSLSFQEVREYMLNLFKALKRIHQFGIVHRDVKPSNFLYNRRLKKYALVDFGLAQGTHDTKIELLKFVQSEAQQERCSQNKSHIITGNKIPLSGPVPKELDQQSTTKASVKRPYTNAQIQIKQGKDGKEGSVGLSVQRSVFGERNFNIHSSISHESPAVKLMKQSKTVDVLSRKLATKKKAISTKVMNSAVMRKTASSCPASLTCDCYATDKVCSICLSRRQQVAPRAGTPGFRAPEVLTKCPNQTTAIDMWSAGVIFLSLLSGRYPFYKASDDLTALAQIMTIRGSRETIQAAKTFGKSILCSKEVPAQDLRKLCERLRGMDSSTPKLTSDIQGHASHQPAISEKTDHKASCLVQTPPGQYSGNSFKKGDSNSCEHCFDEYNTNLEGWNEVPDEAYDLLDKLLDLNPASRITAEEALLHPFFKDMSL

Results are given in words; binding and its absence hold for the method and conditions named. Binding seen in cells or lysates may run through a third protein. Some results given as binding are weak or reduced against the parent protein; the word gives no strength. Sequences can lack the tags named with a protein.

The target in experiment [1] is T1, Mre11 (from a transfected plasmid) (UniProt P49959).
T1 sequence: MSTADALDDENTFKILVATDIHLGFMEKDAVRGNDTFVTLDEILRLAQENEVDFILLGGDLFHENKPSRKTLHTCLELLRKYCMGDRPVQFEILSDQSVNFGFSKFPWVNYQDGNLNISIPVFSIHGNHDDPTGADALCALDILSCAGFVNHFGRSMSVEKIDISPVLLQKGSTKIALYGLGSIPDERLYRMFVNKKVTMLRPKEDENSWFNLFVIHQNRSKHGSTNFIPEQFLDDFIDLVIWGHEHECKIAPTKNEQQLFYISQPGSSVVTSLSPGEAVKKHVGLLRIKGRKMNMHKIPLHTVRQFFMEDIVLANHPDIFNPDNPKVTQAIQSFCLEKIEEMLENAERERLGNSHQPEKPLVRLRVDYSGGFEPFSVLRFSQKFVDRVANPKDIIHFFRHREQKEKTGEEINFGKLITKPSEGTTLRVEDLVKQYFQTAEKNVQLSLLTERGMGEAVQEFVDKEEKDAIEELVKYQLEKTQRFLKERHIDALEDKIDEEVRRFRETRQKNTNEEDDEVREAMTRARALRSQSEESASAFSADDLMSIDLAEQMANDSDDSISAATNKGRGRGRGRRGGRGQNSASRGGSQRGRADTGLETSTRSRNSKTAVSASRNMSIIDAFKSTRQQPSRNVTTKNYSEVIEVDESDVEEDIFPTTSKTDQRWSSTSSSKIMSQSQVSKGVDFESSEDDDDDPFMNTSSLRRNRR
Kind of experiment: co-IP; 293T cells co-transfected with Flag-tagged Cdc7, Myc-tagged Dbf4 and Mre11; immunoprecipitation with anti-Cdc7 and anti-Mre11 antibody, respectively.

The next experiment deals with Flag-HCLK2 (human) (UniProt Q9Y4R8). Kind of experiment: co-IP; 293T cells co-transfected with Myc-Cdc7, Flag-tagged Dbf4 or Myc-tagged Dbf4 and Flag-HCLK2; for Myc-Dbf4 also with or without UV (100 J/m^2), hydrogen peroxide (200 μM) or HU (2 mM).

In the case of “Flag-tagged Cdc7 (from UniProt O00311 1-574) (enzyme)”, the binding entry in experiment [1] is given as “binds”.
Take “Myc-Cdc7 (from UniProt O00311 1-574) (enzyme)”: the binding entry with Flag-HCLK2 (human) is recorded as “binds”.

B1: Myc-tagged Dbf4 (protein, UniProt Q9UBU7 1-674)
chain: MNSGAMRIHSKGHFQGGIQVKNEKNRPSLKSLKTDNRPEKSKCKPLWGKVFYLDLPSVTISEKLQKDIKDLGGRVEEFLSKDISYLISNKKEAKFAQTLGRISPVPSPESAYTAETTSPHPSHDGSSFKSPDTVCLSRGKLLVEKAIKDHDFIPSNSILSNALSWGVKILHIDDIRYYIEQKKKELYLLKKSSTSVRDGGKRVGSGAQKTRTGRLKKPFVKVEDMSQLYRPFYLQLTNMPFINYSIQKPCSPFDVDKPSSMQKQTQVKLRIQTDGDKYGGTSIQLQLKEKKKKGYCECCLQKYEDLETHLLSEQHRNFAQSNQYQVVDDIVSKLVFDFVEYEKDTPKKKRIKYSVGSLSPVSASVLKKTEQKEKVELQHISQKDCQEDDTTVKEQNFLYKETQETEKKLLFISEPIPHPSNELRGLNEKMSNKCSMLSTAEDDIRQNFTQLPLHKNKQECILDISEHTLSENDLEELRVDHYKCNIQASVHVSDFSTDNSGSQPKQKSDTVLFPAKDLKEKDLHSIFTHDSGLITINSSQEHLTVQAKAPFHTPPEEPNECDFKNMDSLPSGKIHRKVKIILGRNRKENLEPNAEFDKRTEFITQEENRICSSPVQSLLDLFQTSEEKSEFLGFTSYTEKSGICNVLDIWEEENSDNLLTAFFSSPSTSTFTGF
For the molecule B1, the binding result (in the experiment with Flag-HCLK2 (human); in experiment [1]) was “binds” each time.

B2: Flag-tagged Dbf4 (protein, UniProt Q9UBU7 1-674)
chain: B1 chain
Regarding B2, in the experiment with Flag-HCLK2 (human), the binding result is “binds”.
